# No constants are given. Whether binding was seen depends on the method and setting. Some entries that bind do so weakly or less than the wild type.
# Sequences of proteins named here, by UniProt entry; tags and fusion partners are left off. A change or cut given only in a name is not applied to a line headed by its entry. A line that says so, or that is headed by a name, gives the form on record, which may keep a tag or linker.
# human plasma fibronectin (P02751, form named): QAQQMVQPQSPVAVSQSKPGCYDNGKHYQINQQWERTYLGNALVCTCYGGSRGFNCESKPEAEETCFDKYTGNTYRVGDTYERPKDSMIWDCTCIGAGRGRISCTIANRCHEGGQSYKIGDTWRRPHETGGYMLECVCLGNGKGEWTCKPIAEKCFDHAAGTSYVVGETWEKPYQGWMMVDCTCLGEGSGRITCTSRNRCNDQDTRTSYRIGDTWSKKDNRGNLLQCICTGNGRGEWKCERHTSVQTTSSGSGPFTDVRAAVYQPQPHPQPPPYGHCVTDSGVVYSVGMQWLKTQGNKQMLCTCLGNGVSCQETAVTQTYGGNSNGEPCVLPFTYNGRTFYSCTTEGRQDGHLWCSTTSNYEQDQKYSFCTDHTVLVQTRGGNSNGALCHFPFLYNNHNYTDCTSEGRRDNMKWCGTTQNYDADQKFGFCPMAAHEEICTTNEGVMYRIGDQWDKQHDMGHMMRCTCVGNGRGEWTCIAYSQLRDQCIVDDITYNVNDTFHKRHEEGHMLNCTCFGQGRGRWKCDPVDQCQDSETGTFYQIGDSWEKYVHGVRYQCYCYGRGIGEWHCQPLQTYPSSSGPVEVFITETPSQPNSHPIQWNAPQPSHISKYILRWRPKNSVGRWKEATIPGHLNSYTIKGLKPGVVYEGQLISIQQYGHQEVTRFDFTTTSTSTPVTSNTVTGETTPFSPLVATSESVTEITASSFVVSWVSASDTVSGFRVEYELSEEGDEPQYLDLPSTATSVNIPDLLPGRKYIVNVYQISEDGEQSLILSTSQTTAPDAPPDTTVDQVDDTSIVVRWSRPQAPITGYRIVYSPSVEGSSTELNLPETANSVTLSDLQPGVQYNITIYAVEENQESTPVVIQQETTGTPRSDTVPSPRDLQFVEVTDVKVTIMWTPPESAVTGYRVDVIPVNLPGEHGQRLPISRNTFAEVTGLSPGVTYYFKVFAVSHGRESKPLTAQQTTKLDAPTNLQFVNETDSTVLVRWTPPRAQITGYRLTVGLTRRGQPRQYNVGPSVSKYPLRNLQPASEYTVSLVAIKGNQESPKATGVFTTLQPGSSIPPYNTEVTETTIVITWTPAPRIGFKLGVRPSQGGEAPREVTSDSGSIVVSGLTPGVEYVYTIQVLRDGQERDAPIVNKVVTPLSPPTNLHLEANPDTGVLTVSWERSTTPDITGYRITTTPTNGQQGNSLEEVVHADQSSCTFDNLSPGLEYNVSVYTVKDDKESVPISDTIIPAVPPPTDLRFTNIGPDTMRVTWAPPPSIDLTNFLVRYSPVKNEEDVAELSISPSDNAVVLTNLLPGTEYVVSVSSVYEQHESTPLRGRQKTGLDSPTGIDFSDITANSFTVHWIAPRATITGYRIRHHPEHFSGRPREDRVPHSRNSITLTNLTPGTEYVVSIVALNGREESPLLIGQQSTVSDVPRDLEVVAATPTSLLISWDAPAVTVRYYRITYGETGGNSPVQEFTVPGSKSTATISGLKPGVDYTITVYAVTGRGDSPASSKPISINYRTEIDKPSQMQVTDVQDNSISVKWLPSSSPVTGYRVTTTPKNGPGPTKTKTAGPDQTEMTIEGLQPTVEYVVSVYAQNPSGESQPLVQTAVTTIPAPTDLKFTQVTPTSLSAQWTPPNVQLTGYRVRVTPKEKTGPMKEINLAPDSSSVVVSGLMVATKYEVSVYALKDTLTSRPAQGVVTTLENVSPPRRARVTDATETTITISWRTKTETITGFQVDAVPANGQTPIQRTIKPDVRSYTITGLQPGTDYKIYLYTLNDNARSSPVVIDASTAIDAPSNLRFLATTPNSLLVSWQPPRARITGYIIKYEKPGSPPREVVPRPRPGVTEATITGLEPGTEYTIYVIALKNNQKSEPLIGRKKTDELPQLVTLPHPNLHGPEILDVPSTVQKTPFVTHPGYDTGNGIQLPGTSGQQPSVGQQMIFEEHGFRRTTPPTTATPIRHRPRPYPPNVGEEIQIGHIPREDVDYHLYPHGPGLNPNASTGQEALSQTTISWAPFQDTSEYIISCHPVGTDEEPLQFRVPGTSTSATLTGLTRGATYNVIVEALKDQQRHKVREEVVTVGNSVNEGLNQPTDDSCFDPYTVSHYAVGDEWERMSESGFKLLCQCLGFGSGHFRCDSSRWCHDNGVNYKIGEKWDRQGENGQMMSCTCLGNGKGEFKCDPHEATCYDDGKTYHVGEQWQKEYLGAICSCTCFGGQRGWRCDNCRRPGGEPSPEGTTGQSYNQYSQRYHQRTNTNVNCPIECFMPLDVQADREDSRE
# UniProt P21926: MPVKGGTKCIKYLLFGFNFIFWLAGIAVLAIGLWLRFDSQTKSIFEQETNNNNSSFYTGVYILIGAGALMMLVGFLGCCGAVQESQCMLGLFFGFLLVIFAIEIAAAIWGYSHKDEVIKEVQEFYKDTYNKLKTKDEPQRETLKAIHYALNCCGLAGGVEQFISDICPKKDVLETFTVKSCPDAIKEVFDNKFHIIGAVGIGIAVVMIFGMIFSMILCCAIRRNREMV
# What was measured:
# [1] = molecular target: human plasma fibronectin (human) (UniProt P02751); assay: SPR, FN captured by anti-FN mAbs
# His6-rCD9 (human) [2] = molecular target: His6-rCD9 (human) (UniProt P21926); assay: ELISA
# [3] = molecular target: purified platelet CD9 (human) (UniProt P21926); assay: ELISA
# [4] = molecular target: purified platelet CD9 (human) (UniProt P21926); assay: ELISA (Examples 1-2)
# peptide 6 (human) [5] = assay: ELISA, immobilized peptide
# [6] = molecular target: purified platelet CD9 (human) (UniProt P21926); assay: ELISA, FN on immobilized CD9
# [7] = molecular target: purified platelet CD9 (human) (UniProt P21926); assay: ELISA, FN on immobilized CD9, without Ca2+
# [8] = molecular target: purified platelet CD9 (human) (UniProt P21926); assay: ELISA, FN 75 µg/ml on immobilized CD9
# peptide 6 (human) [9] = assay: ELISA, FN 75 µg/ml on immobilized peptide 6 (10 µM coat)
# [10] = molecular target: purified platelet CD9 (human) (UniProt P21926); assay: ELISA, FN 100 µg/ml on immobilized CD9, Ca2+ varied 0-4 mM
# His6-rCD9 (human) [11] = molecular target: His6-rCD9 (human) (UniProt P21926); assay: ELISA, FN 0-100 µg/ml on immobilized His6-rCD9, 2.5 mM Ca2+
# [12] = molecular target: purified platelet CD9 (human) (UniProt P21926); assay: ELISA, FN 0-100 µg/ml on immobilized purified platelet CD9, 2.5 mM Ca2+
binding [1],binding (His6-rCD9 (human) [2]),binding [3],binding [4],binding (peptide 6 (human) [5]),binding [6],binding [7],binding [8],binding (peptide 6 (human) [9]),binding [10],binding (His6-rCD9 (human) [11]),binding [12],Substance
binds,–,–,–,–,–,–,–,–,–,–,–,purified platelet CD9 (from UniProt P21926 2-228) (receptor)
–,binds,binds,binds,binds,binds,binds,binds,binds,binds,binds,binds,human plasma fibronectin (from UniProt P02751 32-2296) (ligand)

# Source: patent publication US20040136985A1, “Methods of modifying behavior of CD9-expressing cells” (priority 2002, published 2004)
